Assay results as given in CN111333732A.
These are yes or no findings as the source states them, for the method shown. Some results given as binding are weak or reduced against the parent protein; the word gives no strength. Tags and fused reporters may be left off the sequences shown.

Amino acid sequences for entries named in this document (tags omitted). Residues count along the entry.
UniProt P26718, residues 78-216: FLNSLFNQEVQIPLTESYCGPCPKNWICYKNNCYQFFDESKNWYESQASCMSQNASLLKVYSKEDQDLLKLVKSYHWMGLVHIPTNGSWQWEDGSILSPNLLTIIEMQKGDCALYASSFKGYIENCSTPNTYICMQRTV
UniProt Q02223, residues 1-54: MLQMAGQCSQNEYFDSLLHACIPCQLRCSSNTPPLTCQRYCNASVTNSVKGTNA

What was measured:
NKG2D-Fc蛋白 = NKG2D-Fc蛋白 (UniProt P26718); assay: SPR, simultaneous binding (Fig. 3E)
BCMA蛋白 (coated in ELISA) = BCMA蛋白 (coated in ELISA) (UniProt Q02223); assay: competitive ELISA on coated BCMA, competitor JZDE00

binding (NKG2D-Fc蛋白): binds | binding (BCMA蛋白 (coated in ELISA)): binds
B1: 双特异性抗体2A9-MICA (anti-human BCMA scFv 2A9 fused to human MICA extracellular regions 1-3) (bispecific antibody)
chain: MAEVQLQQSGAELVKPGASVKLSCTASGFNIKDTYMHWVKQRPEQGLEWIGRIDPANGNTKYDPKFQGKATITADTSSNTAYLQLSSLTSEDTAVYYCARWVYWGQGTTLTVSTGGGGSDVVMTQSPSSMYASLGERVTITCKASQDINSYLSWFQQKPGKSPKTLIYRANRLVDGVPSRFSGSGSGQDYSLTISSLEYEDMGIYYCLQYDEFPYTFGGGTKLEIKRGSGGGGSEPHSLRYNLTVLSWDGSVQSGFLAEVHLDGQPFLRYDRQKCRAKPQGQWAEDVLGNKTWDRETRDLTGNGKDLRMTLAHIKDQKEGLHSLQEIRVCEIHEDNSTRSSQHFYYDGELFLSQNLETEEWTVPQSSRAQTLAMNVRNFLKEDAMKTKTHYHAMHADCLQELRRYLESGVVLRRTVPPMVNVTRSEASEGNITVTCRASSFYPRNIILTWRQDGVSLSHDTQQWGDVLPDGNGTYQTWVATRICRGEEQRFTCYMEHSGNHSTHPVPSGKVLVLQSHW
